The experiment concerns L1210 leukemia ip in BDF1 mice, survival T/C. Nature of the experiment: NCI In Vivo Anticancer Drug Screen. Data for tumor model L1210 Leukemia (intraperitoneal) in B6D2F1 (BDF1) mice. Particulars: T/C endpoint: mean survival time, higher T/C = longer survival.
[1] abbreviates: dose: 400.0 mg/kg/injection, schedule: Q04DX003 (ip), vehicle: Klucel (hydroxypropylcellulose) (HPC).
Where [2] appears, read: dose: 400.0 mg/kg/injection, schedule: Q01DX009 (ip), vehicle: saline with Tween-80.
[3] abbreviates: dose: 100.0 mg/kg/injection, schedule: Q01DX001 (ip), vehicle: saline with Tween-80.
[4] abbreviates: dose: 200.0 mg/kg/injection, schedule: Q01DX009 (ip), vehicle: saline with Tween-80.
Setting [5] is: dose: 400.0 mg/kg/injection, schedule: Q04DX003 (ip), vehicle: saline.
Where [6] appears, read: dose: 400.0 mg/kg/injection, schedule: Q01DX009 (ip), vehicle: Klucel (hydroxypropylcellulose) (HPC).
The mark [7] stands for this setting: dose: 400.0 mg/kg/injection, schedule: Q01DX001 (ip), vehicle: carboxymethylcellulose (CMC).
[8] abbreviates: dose: 400.0 mg/kg/injection, schedule: Q04DX002 (ip), vehicle: Klucel (hydroxypropylcellulose) (HPC).
Where [9] appears, read: dose: 400.0 mg/kg/injection, schedule: Q01DX001 (ip), vehicle: saline.

The list does not hold the whole screen: it gathers tests that were run many times, whatever their T/C, doses with no T/C, and many T/C values between a quarter and a half above the control. Further doses and runs are listed elsewhere. T/C: endpoint of the treated group in % of that of the vehicle group. Some entries give survivors of the animals treated and no T/C: the source files T/C as zero there, which appears to mark a toxic dose or a test without result, not a measured value. Some survivor counts are full or nearly so, which does not show that the dose was tolerated: the source hardly ever lists a survival T/C far under the control, and the zero likely stands for such cases as well. Survivors were counted at the toxicity check, usually on the fifth day, unless a day is given; later deaths do not show. Schedules are NCI's codes, read here as Q, the interval in days (D) or hours (H), X, the number of doses. Some doses were run more than once; their values stand side by side, smallest first. Some schedules carry Z or #; the key to these is not given. For survival time, this PubChem deposit counts one and a half times the control or more as active, and values a quarter to a half above the control carry no call in these data; other NCI protocols may use other cut-offs. Some T/C values are followed by the survivors on the day toxicity was checked, most often the fifth; without a count, all were alive then.

On to `CC(C)(C#N)c1ccnc2ccccc12`, for which the survivor count (dose: 50.0 mg/kg/injection, schedule: Q01DX009 (ip), vehicle: Klucel (hydroxypropylcellulose) (HPC)) is on record as 2 of 6; the survivor count (dose: 100.0 mg/kg/injection, schedule: Q04DX003 (ip), vehicle: Klucel (hydroxypropylcellulose) (HPC)) is on record as 0 of 6; the survivor count (dose: 200.0 mg/kg/injection, schedule: Q04DX003 (ip), vehicle: Klucel (hydroxypropylcellulose) (HPC)) is reported as 0 of 6; the survivor count under setting [1] is 0 of 6.
In the case of `CCCCCCCCCCC(S(=O)(=O)CC)S(=O)(=O)CC`, under “dose: 400.0 mg/kg/injection, schedule: Q01DX001 (ip), vehicle: Klucel (hydroxypropylcellulose) (HPC)”, the survivor count is reported as 6 of 6.
As for `CCCN(CCC)C(=O)OCC`, the survivor count under setting [2] was 3 of 6.
For `CC(C)CCC[C@@H](C)[C@H]1CC[C@H]2[C@@H]3CC[C@H]4C[C@H](NC(=O)N(CCF)N=O)CC[C@]4(C)[C@H]3CC[C@]12C`, under “dose: 125.0 mg/kg/injection, schedule: Q01DX001 (ip), vehicle: other”, the T/C is 131 % of control.
For `CCCCCCCCCCCCCCCCCC[P+](CCCC)(CCCC)CCCC`, the survivor count runs as follows: (dose: 12.5 mg/kg/injection, schedule: Q04DX002 (ip), vehicle: saline with Tween-80) 2 of 3; (dose: 25.0 mg/kg/injection, schedule: Q04DX002 (ip), vehicle: saline with Tween-80) 0 of 3; (dose: 50.0 mg/kg/injection, schedule: Q04DX002 (ip), vehicle: saline with Tween-80) 0 of 3; (dose: 100.0 mg/kg/injection, schedule: Q04DX002 (ip), vehicle: saline with Tween-80) 0 of 3; (dose: 200.0 mg/kg/injection, schedule: Q04DX002 (ip), vehicle: saline with Tween-80) 0 of 3; (dose: 400.0 mg/kg/injection, schedule: Q04DX002 (ip), vehicle: saline with Tween-80) 0 of 3.
Consider `O=c1c(Cl)c(C(Cl)(Cl)Cl)[nH]c2ccccc12`, for which, under setting [3], the survivor count is on record as 0 of 6.
In the case of `Nc1ccc(Oc2ccc(Cl)cc2)c(Cl)c1`, the survivor count under setting [2] is on record as 3 of 6.
Turning to `O=S1(=O)CCCC1C(O)(c1ccccc1)c1ccccc1` (configuration not stated), the survivor count is 6 of 6 (dose: 100.0 mg/kg/injection, schedule: Q01DX009 (ip), vehicle: saline with Tween-80); 6 of 6 under setting [4]; 6 of 6 under setting [2].
With `O=C(NCCCCCCCCNC(=O)Nc1ccc(C2=NCCN2)cc1)Nc1ccc(C2=NCCN2)cc1`, the T/C was 136 % of control (dose: 50.0 mg/kg/injection, schedule: Q01DX Z (ip), vehicle: carboxymethylcellulose (CMC)); 132 % of control (dose: 75.0 mg/kg/injection, schedule: Q01DX Z (ip), vehicle: carboxymethylcellulose (CMC)); 127 % of control (dose: 200.0 mg/kg/injection, schedule: Q01DX Z (ip), vehicle: carboxymethylcellulose (CMC)). The survivor count (dose: 500.0 mg/kg/injection, schedule: Q01DX Z (ip), vehicle: carboxymethylcellulose (CMC)) is 0 of 6.
`Nc1nc(N)c2c(Cl)c(CNc3ccc(C(=O)NC(CC(=O)O)CC(=O)O)cc3)ccc2n1`: the T/C (dose: 6.25 mg/kg/injection, schedule: Q04DX003 (ip), vehicle: saline) is 134 % of control [5 of 6 alive]. Moreover, the survivor count (dose: 100.0 mg/kg/injection, schedule: Q04DX003 (ip), vehicle: saline) is 4 of 6; the survivor count (dose: 200.0 mg/kg/injection, schedule: Q04DX003 (ip), vehicle: saline) is listed as 3 of 6; the survivor count under setting [5] is on record as 4 of 6.
For `Oc1cccc2c(NC(=S)Nc3ccccc3)cccc12`, the survivor count under setting [6] is 4 of 6.
For `O=NN(CCCN(N=O)C(=O)Nc1c[nH]c(=O)[nH]c1=O)C(=O)Nc1c[nH]c(=O)[nH]c1=O`, the T/C by setting is: (dose: 300.0 mg/kg/injection, schedule: Q01DX Z (ip), vehicle: saline) 130 % of control; (dose: 400.0 mg/kg/injection, schedule: Q01DX Z (ip), vehicle: saline) 146 % of control.
On to `CCCCC1=NCCc2c1cc1c([nH]c3ccccc31)c2C`, for which the survivor count under setting [5] is 1 of 6.
Consider `CN1CCC(OC(=O)C(O)C2CCCCC2)CC1` (configuration not stated), for which the survivor count under setting [1] is 1 of 6.
In the case of `CN(C)CCC#N`, the survivor count under setting [5] was 4 of 6.
As to `C[N+]1(CCO)CC[N+](C)(CCCN2c3ccccc3Sc3ccc(Cl)cc32)CC1` (configuration not stated), the survivor count (dose: 80.0 mg/kg/injection, schedule: Q01DX001 (ip), vehicle: carboxymethylcellulose (CMC)) is given as 0 of 4; the survivor count (dose: 100.0 mg/kg/injection, schedule: Q01DX001 (ip), vehicle: carboxymethylcellulose (CMC)) was 0 of 4; the survivor count (dose: 200.0 mg/kg/injection, schedule: Q01DX001 (ip), vehicle: carboxymethylcellulose (CMC)) is reported as 0 of 4; the survivor count under setting [7] is listed as 0 of 4.
Consider `CN(N=O)C(=O)NCC1OC(OC2(CO)OC(CNC(=O)N(C)N=O)C(O)C2O)C(O)C(O)C1O` (configuration not stated), for which the T/C reads like this: under setting [4], 140 % of control; (dose: 200.0 mg/kg/injection, schedule: Q01DX009 (ip), vehicle: saline) 139 % of control.
For `CNc1ncnc(NC)c1[N+](=O)[O-]`, the survivor count under setting [8] is 3 of 3.
Consider `O=c1[nH]c2nc3ccccc3nc2c(=O)n1O`, for which the survivor count under setting [6] is listed as 1 of 6.
`CNC(=O)c1cc(NC(=O)c2ccc(C(=O)Nc3cc(C(=O)NC)cc(C4=NCCN4)c3)cc2)cc(C2=NCCN2)c1`: the T/C (dose: 250.0 mg/kg/injection, schedule: Q01DX015 (ip), vehicle: methylcellulose (MC)) is 133 % of control. Besides, the survivor count under setting [7] is given as 4 of 4.
For `CN(C)c1ccc(/C=N/NC(=O)c2ccc(Cl)cc2)cc1`, under setting [4], the survivor count is 3 of 3.
For the compound `O=[N+]([O-])c1[nH]c(Cl)nc1Cl`, the survivor count under setting [3] is on record as 2 of 6; the survivor count (dose: 200.0 mg/kg/injection, schedule: Q01DX001 (ip), vehicle: saline with Tween-80) is given as 0 of 6; the survivor count (dose: 400.0 mg/kg/injection, schedule: Q01DX001 (ip), vehicle: saline with Tween-80) is reported as 0 of 6.
For `CC(=O)c1ccccc1C`, the survivor count under setting [9] is given as 0 of 6.
`COC1C(O)C(C)OC(OC2CC3CCC4C(CCC5(C)C(C6=CC(=O)OC6)CCC45O)C3(C)C(OC(C)=O)C2)C1O` (configuration not stated) (tested in a mixture with another compound): the survivor count is, setting by setting: (dose: 50.0 mg/kg/injection, schedule: Q01DX009 (sc), vehicle: steroid suspending solution) 3 of 6; (dose: 100.0 mg/kg/injection, schedule: Q01DX009 (sc), vehicle: steroid suspending solution) 0 of 6; (dose: 200.0 mg/kg/injection, schedule: Q01DX009 (sc), vehicle: steroid suspending solution) 0 of 6.
On to `O=C(O)c1c[nH]n2c(=S)ncnc12`, for which the survivor count (dose: 400.0 mg/kg/injection, schedule: Q04DX003 (ip), vehicle: saline with Tween-80) is 2 of 6.
In the case of `O=C1Sc2ccccc2C1=O`, under setting [9], the survivor count was 2 of 6.
For `CCCCCCCCCCCC(=O)NC(=S)Nc1cccc(Cl)c1`, under setting [2], the survivor count was 4 of 6 and 3 of 3.
`Cc1ccc2nc(-c3ccc(N)cc3)sc2c1`: the survivor count under setting [2] was 0 of 6.
As for `O=c1scc(-c2ccc(C(F)(F)F)cc2)s1`, the survivor count (dose: 100.0 mg/kg/injection, schedule: Q04DX002 (ip), vehicle: Klucel (hydroxypropylcellulose) (HPC)) is recorded as 0 of 3; the survivor count (dose: 200.0 mg/kg/injection, schedule: Q04DX002 (ip), vehicle: Klucel (hydroxypropylcellulose) (HPC)) is 1 of 3; the survivor count under setting [8] is listed as 0 of 3.

The record behind these values is PubChem BioAssay AID248 (DTP/NCI, 2004).
